Data published in patent publication US20260226152A1.

Biological target: Cynomolgus monkey IL-23 (cynomolgus monkey)
Assay: SPR (Biacore), antibody captured on Protein A/G, cytokine as analyte, 25 C

- binding: no binding (tested: 0.04-25 nM analyte)
B1: IL-18 control 1 (antibody, V domains shown)
VH: QVQLVQSGAEVKKPGASVKVSCKVSGEISTGYYFHWVRQAPGKGLEWMGRIDPEDDSTKYAERFKDRVTMTEDTSTDTAYMELSSLRSEDTAVYYCTTWRIYRDSSGRPFYVMDAWGQGTLVTVSS
VL: DIQMTQSPSSVSASVGDRVTITCLASEDIYTYLTWYQQKPGKAPKLLIYGANKLQDGVPSRFSGSGSGTDYTLTISSLQPEDFATYYCLQGSKFPLTFGQGTKLEIK

No constants are given. Whether binding was seen depends on the method and setting.
